Substrate: Nc1ncnc2c1ncn2[C@@H]1O[C@H](COP(=O)(O)OP(=O)(O)OP(=O)(O)O)[C@@H](O)[C@H]1O
Assay: purified protein
Details: 50 mM MOPS, 2 mM MgCl2, pH 7.5, 37 °C

B1: F. nucleatum F1Fo-ATP synthase (purified) (Fusobacterium nucleatum subsp. nucleatum ATCC 25586) (protein)
chain 1: MNKGTITQIISAVVDIAFKDELPAIYNALKVKLEDKELVLEVEQHLGNNVVRTVAMDSTDGLKRGMEVIDTGKPITIPVGKAVLGRILNVLGEPVDNQGPLNAETFLPIHREAPEFDDLETETEIFETGIKVIDLLAPYIKGGKIGLFGGAGVGKTVLIMELINNIAKGHGGISVFAGVGERTREGRDLYGEMTESGVITKTALVYGQMNEPPGARLRVALTGLTVAENFRDKDGQDVLLFIDNIFRFTQAGSEVSALLGRIPSAVGYQPNLATEMGALQERITSTKSGSITSVQAVYVPADDLTDPAPATTFSHLDATTVLSRNIASLGIYPAVDPLDSTSKALSEDVVGKEHYEVARKVQEVLQRYKELQDIIAILGMDELSDEDKLTVSRARKIERFFSQPFSVAEQFTGMEGKYVPVKETIRGFREILEGKHDDIPEQAFLYVGTIEEAVAKSKDLAK
chain 2: MNIRPEEVSSIIKKEIDNYKKSLEIKTSGTVLEVGDGIARIFGLSNVMSGELLEFPHGVMGMALNLEEDNVGAVILGNASLIKEGDEVRATGKVVSVPAGEDLLGRVINALGDPIDGKGEIHVDKYMPIERKASGIIARQPVSEPLQTGIKSIDGMVPIGRGQRELIIGDRQTGKTAIAIDTIINQKGQDVKCIYVAIGQKRSTVAQIYKKLSDLGCMDYTIIVAATASEAAPLQYMAPYSGVAIGEYFMEKGEHVLIIYDDLSKHAVAYREMSLLLRRPPGREAYPGDVFYLHSRLLERAAKLSDELGGGSITALPIIETQAGDVSAYIPTNVISITDGQIFLESQLFNSGFRPAINAGISVSRVGGAAQIKAMKQVASKVKLELAQYTELLTFAQFGSDLDKATKAQLERGHRIMEILKQPQYHPFAVERQVVSFYIVINGHLDDIEVSKVRRFEKELLDYLKANTNILTEIADKKALDKDLEEKLKESIANFKKSFN
- Km: 250 µM
